Data as given in paper PMC4598761.
No constants are given. Whether binding was seen depends on the method and setting. Where a sequence is shown, tags or fusion partners need not be part of it.

The chains behind the UniProt entries cited, without tags or fusion partners.
UniProt Q9Y3R4: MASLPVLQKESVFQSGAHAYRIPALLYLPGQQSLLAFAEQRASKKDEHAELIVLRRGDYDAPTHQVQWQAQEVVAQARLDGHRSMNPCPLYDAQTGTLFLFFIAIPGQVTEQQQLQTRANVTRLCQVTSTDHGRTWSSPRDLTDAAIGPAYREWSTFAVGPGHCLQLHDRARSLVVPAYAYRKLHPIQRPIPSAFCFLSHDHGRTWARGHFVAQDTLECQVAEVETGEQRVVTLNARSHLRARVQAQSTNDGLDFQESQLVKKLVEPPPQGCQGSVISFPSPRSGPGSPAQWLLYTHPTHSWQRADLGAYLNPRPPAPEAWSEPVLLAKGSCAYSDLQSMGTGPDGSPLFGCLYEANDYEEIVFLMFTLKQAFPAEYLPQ

Target: T1, (His)6-tagged yeast PNGase (yeast) (UniProt Q02890)
T1 sequence: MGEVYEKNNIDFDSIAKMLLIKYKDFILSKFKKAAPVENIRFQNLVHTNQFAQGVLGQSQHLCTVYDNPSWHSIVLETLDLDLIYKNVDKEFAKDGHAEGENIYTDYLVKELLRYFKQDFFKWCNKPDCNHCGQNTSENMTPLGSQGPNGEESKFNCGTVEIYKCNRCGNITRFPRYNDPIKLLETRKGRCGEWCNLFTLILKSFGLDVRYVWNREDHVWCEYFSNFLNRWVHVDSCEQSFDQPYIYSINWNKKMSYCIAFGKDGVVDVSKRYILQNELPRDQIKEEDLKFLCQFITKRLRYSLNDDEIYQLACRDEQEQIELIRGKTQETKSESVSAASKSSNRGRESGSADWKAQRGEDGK
Experiment: pull-down; purified recombinant proteins mixed overnight at 4 °C (1.5 mg/mL each), precipitated with 20 μL Ni-Sepharose 6 Fast Flow for 1 h at 4 °C (His-tagged protein held), washed three times with PBS, western blotting; both purified

binding: no binding
Substance: GST-NEU2 (recombinant cytosolic sialidase NEU2) (from UniProt Q9Y3R4 1-380) (enzyme)
